The source of these data is PubChem BioAssay AID493014 (National Center for Advancing Translational Sciences (NCATS), 2011).

Each structure is given as a SMILES string. Where “and” joins values, the source holds several entries; their conditions need not be identical. Identical values can stand only once. Some of the results follow. The main result of the screen is listed elsewhere. These columns were measured beside it and carry no call. Most of these compounds were active or inconclusive in the main read-out, so they are no random draw. Potencies come from curve fits of mixed quality, noted in brackets.

The experiment can be described thus: qHTS Assay to Find Inhibitors of Chronic Active B-Cell Receptor Signaling. The note with it: ABC-DLBCL IkBa-CBG/CBR reporter, luminescence ratio (green luciferase fused to IkBa over red control in TMD8 lymphoma cells), 4 h. The method, boiled down: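 Doxycycline induced both beetle luciferases in TMD8 lymphoma cells; IKK-driven degradation limits the IkappaBalpha-fused green signal, while red luminescence normalises for cell number and nonspecific effects. Compounds tested up to 46 uM, 4 hrs.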

The mark [1] stands for this setting: measured here: CBR red luminescence, cell number.
[2] abbreviates: measured here: IkBa-CBG green luminescence.

Consider `COc1ccccc1N1CCN(C(=O)c2oc3cc(C)c(C)cc3c2C)CC1`, for which the concentration at half-maximal activity (AC50) under setting [1] is 0.92 µM [falling, full curve, poor fit].
On to `Cn1nc(-c2ccccc2)cc1NC(=O)c1ccc(Cl)cc1`, for which the AC50 under setting [1] is 20.6 µM [rising, single point].
Regarding `COn1c(=O)c(-c2cccs2)[n+]([O-])c2ccccc21`, the AC50 under setting [1] is 1.41 µM [rising, partial curve, poor fit].
`CCc1cc2c(NCC(=O)O)ncnc2s1`: the AC50 under setting [1] was 9.2 µM [rising, partial curve, poor fit].
For the molecule `Cc1cc(C)cc(C(=O)OCC(=O)NCCNC(=O)COC(=O)c2cc(C)cc(C)c2)c1`, the AC50 under setting [1] was 12.6 µM [falling, single point].
As to `COc1ccc(OC)c(CN2CCN(C(=O)c3cccc(S(=O)(=O)Nc4ccccc4OC)c3)CC2)c1`, the AC50 under setting [1] is 6.51 µM [falling, partial curve].
Take `Cc1ccc(-n2ncc3c(NCCCOC(C)C)ncnc32)c(C)c1`: under setting [1], the AC50 was 25.1 µM [falling, partial curve, poor fit].
For `O=C(Nc1cccc2c1CCCC2)c1ccccc1Br`, the AC50 under setting [1] was 2 µM [rising, full curve, poor fit].
As to `Fc1ccc(C2c3[nH]c4ccccc4c3CCN2CCCn2cccn2)cc1` (stereo unspecified), the AC50 was 11.2 µM [falling, partial curve, poor fit] under setting [1] and 14.1 µM [rising, partial curve, poor fit] under setting [2].
With `Cc1nc(SCc2ccc(Cl)c(Cl)c2)ncc1C(=O)O`, under setting [1], the AC50 is 22.4 µM [falling, single point].
`CCc1noc(C)c1C(=O)NNC(=O)COc1cc(C)ccc1C`: the AC50 is 23.1 µM [rising, single point] under setting [1] and 29.1 µM [falling, partial curve, poor fit] under setting [2].
For the molecule `CCC(C)NS(=O)(=O)c1ccc(OCC(=O)Nc2ccc(F)cc2F)cc1` (stereo unspecified), the AC50 under setting [1] was 0.0517 µM [rising, full curve, poor fit].
Same read-out and setting: in the case of `Cc1cccc(NC(=O)CS(=O)(=O)c2cn(C)c3ccccc23)c1C` it was 29.1 µM [falling, single point].
For the molecule `CCOc1ccc(NC(=O)c2cc3n(n2)C(C(F)(F)F)CC(c2ccco2)N3)cc1` (stereo unspecified), under setting [1], the AC50 was 4.47 µM [rising, partial curve, poor fit].
As for `CCOc1cc(/C=C/C(=O)c2ccc(O)cc2)ccc1OCC(=O)N(C)C`, the AC50 under setting [1] was 20.6 µM [falling, partial curve].
For the molecule `O=C(O)C1CCCCC1C(=O)Nc1cccc(Cl)c1Cl` (stereo unspecified), the AC50 under setting [1] is 5.62 µM [rising, single point].
On the same count and under the same terms, the value for `Cc1ccc(NC(=O)C(C)OC(=O)CCC2CCCCC2)cc1` (stereo unspecified) was 29.1 µM [falling, single point]; that for `CCN(C(=O)c1cc2ccccc2oc1=O)c1ccccc1` was 29.1 µM [falling, single point].
The same measure, in the same setting: the value for `NC(=O)C1CCN(C(=O)c2ccc3nc(N4CCCCC4)sc3c2)CC1` was 35.5 µM [rising, single point]; that for `COc1cc2c(OC(C)=O)c3c(c(-c4ccc5c(c4)OCO5)c2cc1OC)C(=O)OC3` was 3.55 µM [rising, full curve]; that for `COc1ccc(NC(=O)OCCN2CCN(Cc3ccccc3)CCC2=O)cc1` was 14.6 µM [rising, partial curve, poor fit].
On to `C=CCn1c(N)c(C(=O)OCCC)c2nc3ccccc3nc21`, for which the AC50 under setting [1] was 6.31 µM [falling, full curve, poor fit].
In the case of `CC1CCN(C2CC(=O)N(c3ccc(Br)cc3Br)C2=O)CC1` (stereo unspecified), the AC50 under setting [1] was 7.94 µM [falling, partial curve, poor fit].
Regarding `c1ccc(-n2ncc3c(NC4CCCC4)ncnc32)cc1`, the AC50 under setting [1] was 2.51 µM [falling, full curve] and the AC50 under setting [2] was 0.631 µM [rising, full curve].
Take `COc1ccc2nc(NC(=O)c3cccc(N4C(=O)CCC4=O)c3)sc2c1`: under setting [1], the AC50 was 9.2 µM [falling, partial curve, poor fit].
Same read-out and setting: in the case of `CCOC(=O)N1CCN(c2ncnc3scc(-c4ccccc4)c23)CC1` it was 6.31 µM [falling, partial curve, poor fit].
With `CC1CCc2c(sc3ncnc(SC(C)C(=O)NCC4CCCO4)c23)C1` (stereo unspecified), the AC50 under setting [1] was 29.1 µM [falling, single point].
Same read-out and setting: the value for `Cc1ccc(OCc2cc(C(=O)NCCn3cccn3)no2)cc1C` was 22.4 µM [falling, single point]; that for `COCCOC(=O)C1=C(N)OC2=C(C(=O)CCC2)C1c1cccnc1` (stereo unspecified) was 0.224 µM [falling, full curve, poor fit]; that for `Cn1c(SCC(=O)N/N=C/c2cccs2)nc2ccccc21` was 2.59 µM [rising, partial curve, poor fit].
As for `NC(=O)c1ccccc1NS(=O)(=O)Cc1ccc(Cl)cc1`, under setting [1], the AC50 is 0.651 µM [rising, full curve].
Same read-out and setting: in the case of `Cc1ccc(-c2ccnc3[nH]n(-c4ccccc4)c(=O)c23)cc1` it was 8.91 µM [falling, partial curve, poor fit]; in that of `COc1ccc(COc2ccccc2C(=O)NCc2ccccc2)cc1F`, 2.91 µM [falling, partial curve].
`COC(=O)c1cc2n(n1)CCN(Cc1ccccc1F)C2=O`: under setting [1], the AC50 is 31.6 µM [falling, single point].
The same measure, in the same setting: the value for `CCOC(=O)c1sc(NC(=O)CSc2nnnn2-c2ccc(C)cc2)c(C(=O)OCC)c1C` was 0.92 µM [rising, partial curve]; that for `COc1c(C)cc(C(=O)C2CCCN(Cc3cccc4nccnc34)C2)cc1C` (stereo unspecified) was 2.82 µM [rising, full curve, poor fit].
Same read-out and setting: the value for `CCNC(=O)C(=O)Nc1ccc(OC)c(Cl)c1` was 6.31 µM [rising, partial curve, poor fit]; that for `O=C(CCN1CCN(C(c2ccccc2)c2ccccc2)CC1)N/N=C/c1ccc(O)cc1O` was 18.4 µM [falling, partial curve].
Still for that read-out and setting: in the case of `CCn1c(=O)c(CCC(=O)NCC2CCCO2)c(C)c2c(C)nn(-c3ccccc3)c21` (stereo unspecified) it was 28.2 µM [falling, single point].
Turning to `CC(=O)Nc1c(O)nc(SCC(=O)Nc2cccc(C)c2)[nH]c1=O`, the half-maximal activity concentration (AC50) under setting [1] is 0.103 µM [falling, full curve, poor fit].
`C[C@@H]1NC(=O)N(CCCn2ccnc2)C1=O`: the AC50 under setting [1] is 35.5 µM [rising, single point].
Consider `COc1ccc(NC(=O)c2cccc(OS(=O)(=O)N(C)C)c2)cc1`, for which the AC50 under setting [1] is 20 µM [falling, partial curve, poor fit].
On to `CCCS(=O)(=O)n1nc(-c2ccc(Br)cc2)cc1N`, for which the AC50 under setting [1] was 0.103 µM [rising, full curve, poor fit].
Take `Cc1nn(-c2ccccc2)c2sc(-c3nnc(SCC(=O)O)o3)cc12`: under setting [1], the AC50 is 8.2 µM [falling, partial curve, poor fit].
As to `CC1=NN(C(=O)c2ccc(Cl)cc2)C(O)(c2ccccc2)C1` (stereo unspecified), the AC50 under setting [1] is 35.5 µM [falling, single point].
For the molecule `Cc1ncoc1C(=O)N1CCc2c([nH]c3ccccc23)C1C1CCCCC1` (stereo unspecified), the AC50 under setting [1] is 3.98 µM [falling, partial curve, poor fit].
Still for that read-out and setting: in the case of `COC(=O)c1ccccc1NC(=O)CN1CCC(C(=O)c2ccc3c(c2)OCCO3)CC1` it was 11.2 µM [falling, single point]; in that of `Cc1ccc(N2CCN(c3ccc(C)cc3)C2c2ccncc2)cc1`, 10 µM [rising, partial curve, poor fit].
Same read-out and setting: the value for `Cc1ccc(NC(=O)c2ccsc2)cc1NS(C)(=O)=O` was 5.01 µM [rising, full curve, poor fit].
Same read-out and setting: in the case of `CCCCSCCCNC(=O)c1ccc2c(c1)N(CC)C(=O)c1ccccc1S2=O` (stereo unspecified) it was 22.4 µM [falling, partial curve, poor fit]; in that of `Cc1ccc(NC(=S)Nc2cccc3ccccc23)cc1F`, 1.41 µM [falling, full curve, poor fit]; in that of `O=C(NCCC(=O)N1CCCC(C(F)(F)F)C1)c1ccccc1Cl` (stereo unspecified), 35.5 µM [falling, single point].
Regarding `COC(=O)c1c(NC(=O)Cc2ccccc2)sc2c1C(C(=O)OC)CC2` (stereo unspecified), under setting [1], the AC50 is 12.6 µM [rising, single point].
On to `O=C(NNC(=O)C1C2CCC(C2)C1C(=O)O)c1ccc(Br)o1` (stereo unspecified), for which the AC50 under setting [1] is 23.1 µM [falling, single point].
As for `Cc1ccc(NC(=O)c2cc(S(=O)(=O)NCCC3=CCCCC3)ccc2F)cc1F`, the AC50 by setting is: under setting [1], 13 µM [falling, partial curve] and 4.47 µM [falling, partial curve]; under setting [2], 10.3 µM [rising, partial curve, poor fit].
On to `Cc1c(C(c2ccc(C(=O)O)cc2)c2c(C)n(C)n(-c3ccccc3)c2=O)c(=O)n(-c2ccccc2)n1C`, for which the AC50 under setting [1] is 2.24 µM [rising, full curve, poor fit].
Regarding `CCOC(=O)c1cnc(-c2ccccc2)nc1N(C)C`, the AC50 under setting [1] was 0.461 µM [rising, full curve, poor fit].
As for `CC(C)CCNC(=O)c1ccc(Cl)c(NC(=O)Cc2ccccc2)c1`, the AC50 under setting [1] was 7.31 µM [rising, partial curve].
Regarding `CCC1CCCCN1C(=O)CSc1nc2ncccc2[nH]1` (stereo unspecified), the AC50 under setting [1] is 2.51 µM [falling, partial curve, poor fit].
Turning to `Cc1cccc(OCC(=O)O/N=C(\N)c2ccccn2)c1`, the AC50 under setting [1] is 12.6 µM [falling, partial curve, poor fit].
With `CCOC(=O)c1c(OCC)[nH]c2c1cc(O)c1ccccc12`, the AC50 under setting [1] was 20 µM [falling, partial curve, poor fit].
Consider `CCC(C)N(CCNC(=O)CC1Oc2ccccc2NC1=O)C1CCCCC1` (stereo unspecified), for which the AC50 under setting [1] is 29.1 µM [falling, single point].

A word on the AC50: it is the concentration at which the activity in the assay is half-maximal.
